From PubChem BioAssay (NCATS)
Inconclusive means that the source gave no clear call. Such entries were picked first, then a sample of the others. Potencies of inconclusive entries are doubtful fits and often do not repeat. Active and inactive are the calls of the source. Calls come from the whole dose curve; as a rule, active = well fitted cell-killing curve with a large enough effect; inconclusive = small, poorly fitted or top-dose-only effect, or effect the other way; inactive = no such curve, though single readings can be large or run the other way.

Experiments:
[1] = Quantitative High-Throughput drug screen in 47 multiple myeloma cell lines against the NCATS MIPE library collection: FR4_PLB cell viability assay (AID 1918924; note: nearly all actives have a fitted effect of over 35% in size); settings: FR4_PLB myeloma cells viability, CellTiter-Glo ATP, 48 h; series mostly up to 45.8 µM
How it was run: (§1)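 Luminescent ATP measurement with CellTiter-Glo gives viability, scaled between DMSO-only wells (100%) and media-only wells (0%). Cells, 500 per well, faced library compounds for 48 hours at 37C.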

[2] = Quantitative High-Throughput drug screen in 47 multiple myeloma cell lines against the NCATS MIPE library collection: Delta47_JCRB cell viability assay (AID 1918925; note: nearly all actives have a fitted effect of over 45% in size); settings: Delta47 myeloma viability, CellTiter-Glo ATP, 48 h; viability (% of DMSO): at 45.8 µM (top of the series)
How it was run: (§2)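 Myeloma cell lines, 500 cells per well, exposed to MIPE 4.0 library compounds for 48 h at 37C, 5% CO2. Viability from ATP by CellTiter-Glo luminescence; normalised to DMSO (100%) and media-only (0%) wells.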

[3] = Quantitative High-Throughput drug screen in 47 multiple myeloma cell lines against the NCATS MIPE library collection: EJM_DSMZ cell viability assay (AID 1918926; note: nearly all actives have a fitted effect of over 30% in size); settings: EJM myeloma cell viability, CellTiter-Glo ATP, 48 h; series mostly up to 45.8 µM
How it was run: as §2

[4] = Quantitative High-Throughput drug screen in 47 multiple myeloma cell lines against the NCATS MIPE library collection: ARP1_JJKsccF8 cell viability assay (AID 1918928; note: nearly all actives have a fitted effect of over 40% in size); settings: ARP1 myeloma cells viability, CellTiter-Glo ATP, 48 h; viability: at 45.8 µM (top of the series)
How it was run: (§3)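 Myeloma cells, 500 per well, were exposed to MIPE 4.0 drugs by pin transfer for 48 h at 37 °C, 5% CO2. Viability was read as ATP luminescence with CellTiter-Glo, normalised to DMSO-only (100%) and medium-only (0%) wells.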

[5] = Quantitative High-Throughput drug screen in 47 multiple myeloma cell lines against the NCATS MIPE library collection: Karpas417_ECACC cell viability assay (AID 1918961); settings: Karpas417 myeloma viability, CellTiter-Glo ATP luminescence, 48 h; viability (% of DMSO): at 45.8 µM (top of the series)
How it was run: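 Steps: seed 500 cells per well; pin-transfer MIPE 4.0 library; incubate 48 h at 37C, 5% CO2, humidified; add CellTiter-Glo, 5 min room temperature; read luminescence.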

[6] = Quantitative High-Throughput drug screen in 47 multiple myeloma cell lines against the NCATS MIPE library collection: ARD_JJKsccE7 cell viability assay (AID 1918929); settings: ARD myeloma cell line viability, CellTiter-Glo, 48 h; viability: at 45.8 µM (top of the series)
How it was run: as §2

[7] = Quantitative High-Throughput drug screen in 47 multiple myeloma cell lines against the NCATS MIPE library collection: Karpas620_DSMZ cell viability assay (AID 1918959); settings: Karpas620 myeloma viability, CellTiter-Glo ATP luminescence, 48 h; viability (% of DMSO): at 45.8 µM (top of the series); note: nearly all actives have a fitted effect of over 30% in size
How it was run: as §1

[8] = Quantitative High-Throughput drug screen in 47 multiple myeloma cell lines against the NCATS MIPE library collection: KMM1_JCRB cell viability assay (AID 1918960); settings: KMM1 myeloma viability, CellTiter-Glo ATP luminescence, 48 h; viability (% of DMSO): at 45.8 µM (top of the series); note: nearly all actives have a fitted effect of over 30% in size
How it was run: as §3

[9] = Quantitative High-Throughput drug screen in 47 multiple myeloma cell lines against the NCATS MIPE library collection: AMO1_DSMZ cell viability assay (AID 1918927; note: nearly all actives have a fitted effect of over 30% in size); settings: AMO1 myeloma cells viability, CellTiter-Glo ATP luminescence, 48 h; series mostly up to 45.8 µM
How it was run: as §2
Potency is the fitted concentration of half-maximal effect.

C=C[C@@H]1CN2CCC1C[C@H]2[C@H](O)c1ccnc2ccc(OC)cc12 (stereo partly drawn)
Potency [1]: inconclusive: 0.235 µM [rising, full curve, poor fit]
Potency [2]: inconclusive: 29.6 µM [cytotoxic, single point]
Potency [3]: inconclusive: 5.9 µM [cytotoxic, partial curve, poor fit]
Potency [4]: inconclusive: 37.2 µM [cytotoxic, single point]
Potency [5]: inactive

N#CC(=C(O)c1ccc(Cl)cc1Cl)c1nc2cc(Cl)ccc2c(=O)[nH]1
Potency [1]: inconclusive: 0.001 µM [cytotoxic]
Potency [2]: inactive
Potency [3]: inactive
Potency [6]: inactive
Potency [7]: inconclusive: 6.62 µM [cytotoxic, partial curve, poor fit]
Potency [8]: inactive
Potency [5]: inconclusive: 0.209 µM [rising, full curve, poor fit]

Cc1cccc(Nc2nc(N[C@@H]3CCCC[C@H]3N)ncc2C(N)=O)c1
Potency [1]: inconclusive: 37.2 µM [cytotoxic, single point]
Potency [2]: active: 0.187 µM
Potency [3]: active: 20.9 µM
Potency [5]: active: 3.72 µM

CCN(CC)CCOc1ccc(Cc2ccccc2)cc1
Potency [1]: inconclusive: 3.72 µM [cytotoxic, partial curve, poor fit]
Potency [2]: inactive
Potency [3]: inconclusive: 0.0118 µM [rising, full curve, poor fit]
Potency [4]: inconclusive: 14.8 µM [cytotoxic, partial curve, poor fit]
Potency [8]: inconclusive: 14.8 µM [cytotoxic, partial curve, poor fit]
Potency [5]: inconclusive: 0.105 µM [rising, full curve, poor fit]

Nc1c2c(nc3ccccc13)CCCC2
Potency [1]: inactive
Potency [2]: inconclusive: 2.35 µM [cytotoxic, full curve, poor fit]
Potency [9]: inconclusive: 0.0332 µM [cytotoxic, full curve, poor fit]
Potency [4]: inconclusive: 9.35 µM [cytotoxic, full curve]
Potency [8]: inactive
Potency [5]: inconclusive: 20.9 µM [rising, partial curve, poor fit]

O=C1c2cccc(O)c2C(=O)c2c(O)cc(CO)cc21
Potency [1]: inactive
Potency [2]: inactive
Potency [9]: inactive
Potency [4]: inconclusive: 10.5 µM [cytotoxic, partial curve, poor fit]
Potency [6]: inactive
Potency [5]: inconclusive: 0.105 µM [rising, full curve, poor fit]

CC(C)(F)C[C@H](N[C@@H](c1ccc(-c2ccc(S(C)(=O)=O)cc2)cc1)C(F)(F)F)C(=O)NC1(C#N)CC1
Potency [1]: inconclusive: 1.32 µM [cytotoxic, partial curve, poor fit]
Potency [2]: inactive
Potency [3]: inactive
Potency [6]: inactive
Potency [8]: inconclusive: 9.35 µM [cytotoxic, partial curve, poor fit]
Potency [5]: inconclusive: 0.0059 µM [cytotoxic, full curve, poor fit]

CC(C)c1c(C(=O)Nc2ccccc2)c(-c2ccccc2)c(-c2ccc(F)cc2)n1CC[C@H](O)C[C@@H](O)CC(=O)O
Potency [1]: active: 14.8 µM
Potency [2]: inconclusive: 23.5 µM [cytotoxic, partial curve]
Potency [3]: inconclusive: 0.418 µM [cytotoxic, full curve, poor fit]
Potency [6]: inconclusive: 8.33 µM [cytotoxic, single point]
Potency [8]: inconclusive: 0.0013 µM [cytotoxic, full curve, poor fit]
Potency [5]: inconclusive: 33.2 µM [rising, partial curve, poor fit]

CCc1cc(-c2n[nH]c(C)c2-c2ccc3c(c2)OCCO3)c(O)cc1O
Potency [1]: inconclusive: 6.62 µM [cytotoxic, full curve]
Potency [2]: active: 7.43 µM
Potency [3]: inconclusive: 8.33 µM [cytotoxic, full curve]
Potency [6]: active: 1.18 µM
Potency [7]: active: 14.8 µM

CC(C)NC[C@@H](C(=O)N1CCN(c2ncnc3c2[C@H](C)C[C@H]3O)CC1)c1ccc(Cl)cc1
Potency [1]: inconclusive: 29.6 µM [cytotoxic, single point]
Potency [2]: active: 0.0935 µM
Potency [3]: active: 16.6 µM
Potency [4]: active: 2.09 µM
Potency [8]: inconclusive: 0.296 µM [cytotoxic, full curve, poor fit]
Potency [5]: inconclusive: 37.2 µM [rising, partial curve, poor fit]

COc1cc(N2CCN(C)CC2)ccc1Nc1nc(N)c(C(=O)c2c(Cl)cccc2Cl)s1
Potency [1]: inconclusive: 37.2 µM [cytotoxic, single point]
Potency [2]: inconclusive: 23.5 µM [cytotoxic, partial curve, poor fit]
Potency [9]: active: 18.7 µM
Potency [4]: inconclusive: 23.5 µM [cytotoxic, single point]
Potency [6]: inconclusive: 26.4 µM [cytotoxic, single point]
Potency [7]: inconclusive: 33.2 µM [cytotoxic, single point]
Potency [5]: inconclusive: 37.2 µM [cytotoxic, single point]

CC1(C)CC(=O)c2c(C(F)(F)F)nn(-c3ccc(C(N)=O)c(NC4CCC(OC(=O)CN)CC4)c3)c2C1 (stereo not drawn)
Potency [1]: inconclusive: 0.132 µM [cytotoxic, full curve]
Potency [2]: active: 0.166 µM
Potency [3]: inconclusive: 0.187 µM [cytotoxic, full curve]
Potency [5]: inconclusive: 33.2 µM [rising, partial curve, poor fit]

COc1cc2c(cc1OC)[C@@H]1Cc3ccc(OC)c(OC)c3CN1CC2
Potency [1]: inconclusive: 9.35 µM [cytotoxic, partial curve, poor fit]
Potency [2]: inconclusive: 0.0093 µM [cytotoxic, full curve, poor fit]
Potency [9]: inactive
Potency [4]: active: 13.2 µM
Potency [8]: inconclusive: 7.43 µM [cytotoxic, partial curve, poor fit]
Potency [5]: inconclusive: 33.2 µM [rising, single point]

CNC(=O)c1cccc(-c2ccc3c(N4CCOC[C@H]4C)nc(N4CCOC[C@H]4C)nc3n2)c1
Potency [1]: active: 0.0662 µM
Potency [2]: active: 0.0296 µM
Potency [3]: active: 1.66 µM
Potency [4]: active: 0.0187 µM
Potency [6]: active: 1.18 µM
Potency [7]: inconclusive: 0.418 µM [cytotoxic, full curve]
Potency [8]: inconclusive: 0.0235 µM [cytotoxic, full curve]
Potency [5]: active: 0.0526 µM

CC1=C(C(=O)Nc2cc3cn[nH]c3cc2F)C(c2ccc(C(F)(F)F)cc2)CC(=O)N1 (stereo not drawn)
Potency [1]: inconclusive: 0.296 µM [rising, full curve]
Potency [2]: inactive
Potency [9]: inconclusive: 0.662 µM [cytotoxic, full curve, poor fit]
Potency [4]: inactive

Cn1c(=O)c2c(ncn2CC(O)CO)n(C)c1=O (stereo not drawn)
Potency [1]: inactive
Potency [2]: inactive
Potency [3]: inactive
Potency [6]: inconclusive: 5.26 µM [rising, partial curve, poor fit]
Potency [5]: inconclusive: 37.2 µM [cytotoxic, single point]

COc1cccc(N(C)C(=S)Oc2ccc3c(c2)CCCC3)n1
Potency [1]: inactive
Potency [2]: inactive
Potency [9]: inconclusive: 37.2 µM [cytotoxic, single point]
Potency [4]: inconclusive: 23.5 µM [cytotoxic, single point]
Potency [6]: active: 23.5 µM
Potency [7]: inconclusive: 18.7 µM [cytotoxic, single point]
Potency [8]: inconclusive: 18.7 µM [cytotoxic, partial curve]
Potency [5]: inconclusive: 37.2 µM [cytotoxic, partial curve, poor fit]

Oc1ccc([C@@H]2Oc3ccc(O)cc3[C@@H]3CCC[C@@H]32)cc1
Potency [1]: inconclusive: 3.72 µM [cytotoxic, full curve]
Potency [2]: inconclusive: 16.6 µM [cytotoxic, partial curve]
Potency [3]: inconclusive: 20.9 µM [cytotoxic, partial curve, poor fit]
Potency [5]: inconclusive: 0.0418 µM [rising, full curve, poor fit]

CCCc1nn(C)c2c(=O)[nH]c(-c3cc(S(=O)(=O)N4CCN(C)CC4)ccc3OCC)nc12
Potency [1]: inconclusive: 8.33 µM [cytotoxic, partial curve, poor fit]
Potency [2]: inconclusive: 18.7 µM [cytotoxic, partial curve, poor fit]
Potency [3]: inactive
Potency [4]: inconclusive: 16.6 µM [cytotoxic, partial curve]
Potency [7]: inconclusive: 0.0332 µM [cytotoxic, full curve, poor fit]
Potency [8]: inactive
Potency [5]: inactive

CC(C)(Oc1ccc(C2CC2(Cl)Cl)cc1)C(=O)O (stereo not drawn)
Potency [1]: inactive
Potency [2]: inconclusive: 0.0605 µM [cytotoxic, partial curve, poor fit]
Potency [9]: inactive
Potency [4]: inconclusive: 67.9 µM [cytotoxic, single point]
Potency [6]: inactive
Potency [8]: inconclusive: 67.9 µM [cytotoxic, single point]
Potency [5]: inconclusive: 0.0382 µM [rising, full curve, poor fit]

CCOC(=O)N1c2ccc(C(F)(F)F)cc2[C@@H](N(Cc2cc(C(F)(F)F)cc(C(F)(F)F)c2)C(=O)OC)C[C@H]1CC
Potency [1]: inconclusive: 6.62 µM [cytotoxic, partial curve, poor fit]
Potency [2]: inconclusive: 20.9 µM [cytotoxic, single point]
Potency [3]: inconclusive: 7.43 µM [cytotoxic, full curve, poor fit]
Potency [7]: inactive
Potency [5]: inconclusive: 4.18 µM [rising, full curve, poor fit]

CC1=C(C(=O)O)N2C(=O)[C@@H](NC(=O)C(N)c3ccccc3)[C@H]2SC1 (stereo partly drawn)
Potency [1]: inactive
Potency [2]: inconclusive: 14.8 µM [cytotoxic, partial curve, poor fit]
Potency [9]: inactive
Potency [4]: inactive
Potency [6]: inactive
Potency [8]: inactive
